Data from patent US11203633B2, “Polynucleotides encoding antibodies or antigen binding fragments thereof that bind pseudomonas perv” (priority 2011, dated 2021).
Some results were stated once for a whole list of compounds, not compound by compound.

Experiments:
[1] = tested on: P. aeruginosa strain 6077 (O11-cytotoxic); assay: Corneal infection (ocular keratitis) model in mice; assay type: in vivo, Pseudomonas aeruginosa; details: FIG. 8F-G
Description: (§1) Antibodies or PBS were administered 24 hours before infection in each model. P. aeruginosa acute pneumonia, keratitis, and thermal injury infection models were performed as described (DiGiandomenico, A., et al., Proc Natl Acad Sci USA 104, 4624-4629 (2007)), with modifications. In the acute pneumonia model, BALB/c mice (The Jackson Laboratory) were infected with P. aeruginosa strains suspended in a 0.05 ml inoculum. In the thermal injury model, CF-1 mice (Charles River) received a 10% total body surface area burn with a metal brand heated to 92° C. for 10 seconds. Animals were infected subcutaneously with P. aeruginosa strain 6077 at the indicated dose. For organ burden experiments, acute pneumonia was induced in mice followed by harvesting of lungs, spleens, and kidneys 24 hours post-infection for determination of CFU.
Cam-003 and WapR-004 efficacy was next evaluated in a P. aeruginosa corneal infection model which emphasizes the pathogens ability to attach and colonize damaged tissue. […] FIG. 8 (H): The activity of anti-Psl and anti-PcrV monoclonal antibodies V2L2 was tested in a P. aeruginosa mouse ocular keratitis model. […]

[2] = tested on: P. aeruginosa PAO1 strain (PAO1.lux) attachment to A549 cells; assay: Cell attachment assay (PAO1.lux to A549 cells); assay type: cell-based, Pseudomonas aeruginosa; details: MOI of 10, FIG. 4
[3] = tested on: P. aeruginosa strains (PAO1, 33356, 6294, 6077, 6206); assay: Acute pneumonia model in mice, organ burden (CFU in lung, spleen, kidneys); assay type: in vivo, Pseudomonas aeruginosa
Description: as §1
Organ burden of Pseudomonas-infected mice was also studied in response to administration of V2L2. FIG. 14 (A) Mice were treated with either 1 mg/kg R347 (control), or 1 mg/kg, 0.2 mg/kg, or 0.07 mg/kg of V2L2 and then were infected intranasally with 1.2×10^6 cfu of Pseudomonas 6206. FIG. 14 (B) Mice were also treated with either 15 mg/kg R347 (negative control); 15.0 mg/kg, 5.0 mg/kg, or 1.0 mg/kg mAb166 (positive control); or 5.0 mg/kg, 1.0 mg/kg, or 0.2 mg/kg V2L2 and then were infected intranasally with 5.5×10^6 cfu of Pseudomonas 6206.
The in vivo effect of combination administration of anti-Psl and anti-PcrV binding domains was further studied in mice using the antibodies V2L2 and WapR-004 (RAD). Groups of mice were treated with R347 (2.1 mg/kg—negative control), V2L2 (0.1 mg/kg), W4-RAD (0.5 mg/kg), or V2L2/W4 combination (either 0.1, 0.5, 1.0 or 2.0 mg/kg each). Twenty-four hours post-administration of antibody, all mice were infected with an inoculum containing 5.25×10^5 cfu 6206 (O11-ExoU+). Twenty-four hours post infection, lungs, spleens, and kidneys were harvested, homogenized, and plated for colony forming unit (CFU) identification per gram of tissue.

B1: WapR-004: anti-Psl human IgG1 monoclonal antibody; VH SEQ ID NO:11, VL SEQ ID NO:12 (antibody, V domains shown)
VH: EVQLLESGPGLVKPSETLSLTCNVAGGSISPYYWTWIRQPPGKGLELIGYIHSSGYTDYNPSLKSRVTISGDTSKKQFSLHVSSVTAADTAVYFCARGDWDLLHALDIWGQGTLVTVSS
VL: EIVLTQSPSSLSTSVGDRVTITCRASQSIRSHLNWYQQKPGKAPKLLIYGASNLQSGVPSRFSGSGSGTDFTLTISSLQPEDFATYYCQQSYSFPLTFGGGTKLEIK
modifications: human IgG1 constant regions not cited; WapR-004 VH; WapR-004 & WarR-004RAD VL
WapR-004 (5 mg/kg) vs. Ctrl, Mann-Whitney U-test P [1]: < 0.0001
reduction of P. aeruginosa cell attachment to A549 cells compared to the negative control [2]: ≤ 80%
viable CFU vs. R347, Mann-Whitney U-test P ([3]; 6206 ~1×10^6 CFU, lung, 15 mg/kg, FIG. 7F): < 0.0001
viable CFU vs. R347, Mann-Whitney U-test P ([3]; 6294 ~1×10^7 CFU, spleen, 1 mg/kg, FIG. 7E): < 0.0001
viable CFU vs. R347, Mann-Whitney U-test P ([3]; 6294 ~1×10^7 CFU, spleen, 15 mg/kg, FIG. 7E): < 0.0001
